PubChem BioAssay AID743121, NCATS – 2013
Purpose: 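Genes whose silencing strengthens cell killing by camptothecin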 (primary screen). Cell system: MDA-MB-231 cells, a human breast cancer line. Knock-down reagent: single siRNA against human genes, 20 nM siRNA (0.8 pmol per well). Time to read-out: 120 h (drug added 48 h after transfection, read 72 h later). Challenge: camptothecin 20 nM (about EC30) for 72 h; vehicle 0.1% DMSO in parallel plates. Read-out: 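CellTiter-Glo ATP signal, scaled to control siRNA as percent viability; sensitisation given as log2 of untreated divided by camptothecin-treated viability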. Scale: log2 vehicle/camptothecin viability: higher = stronger sensitisation to camptothecin; viability with camptothecin: higher = more viable cells. Hit rule: 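Each gene scored by redundant siRNA activity (RSA) over its individual siRNA ratios; a gene is called active at p < 0.001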.
In all, the deposit lists about 26,000 reagents; below is a random part of them. 167 of them (0.63%) count as active. 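Calls are per gene from RSA p-values that are not deposited; an individual active-marked siRNA can sensitise only weakly.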 Further read-outs or replicates are left out here. No sequences are given here.

gene knocked down,PubChem SID,log2 vehicle/camptothecin viability,viability with camptothecin (% of control),call
FZD7,SID164396880,-0.22,90.7,inactive
FZD7,SID164396882,0.143,68,inactive
FZD7,SID164396883,-0.512,63.3,inactive
FZD7,SID164396885,-0.565,80.3,inactive
ASH2L,SID164401481,-0.666,100,inactive
ASH2L,SID164401482,-0.228,82.7,inactive
ASH2L,SID164401484,0.138,44.1,inactive
ASH2L,SID164401486,0.858,42.4,inactive
TUBA8,SID164475554,-0.149,69.8,inactive
TUBA8,SID164475555,0.0378,107,inactive
TUBA8,SID164475557,-0.0779,83,inactive
TUBA8,SID164475560,0.14,85.6,inactive
OR3A3,SID164397329,0.303,32.2,inactive
OR3A3,SID164397330,-0.238,78.2,inactive
OR3A3,SID164397335,0.0891,86.6,inactive
GRB7,SID164367579,-0.606,104,inactive
GRB7,SID164367583,-0.415,52.4,inactive
GRB7,SID164367584,-0.253,84,inactive
TRMT9B,SID164495251,0.213,28.5,inactive
TRMT9B,SID164495252,-0.439,95.5,inactive
TRMT9B,SID164495254,-0.234,109,inactive
TRMT9B,SID164495255,-0.219,79.6,inactive
RAD9A,SID164384470,0.138,92.9,inactive
RAD9A,SID164384471,-0.145,55,inactive
RAD9A,SID164384473,-0.142,5.26,inactive
RAD9A,SID164384474,-0.202,90.2,inactive
UGT1A9,SID164479631,0.0377,103,inactive
UGT1A9,SID164479633,-0.0291,79.2,inactive
UGT1A9,SID164479636,-0.0364,44.1,inactive
UGT1A9,SID164479640,-0.138,84.8,inactive
WT1,SID164394172,-0.0625,92.3,inactive
WT1,SID164394173,-0.285,69.1,inactive
WT1,SID164394175,0.141,101,inactive
WT1,SID164394176,0.0366,54.3,inactive
SSR3,SID164389900,-0.0546,60.1,inactive
SSR3,SID164389902,0.177,64.8,inactive
SSR3,SID164389905,0.0526,72.5,inactive
SSR3,SID164389906,0.0389,82.9,inactive
NRDC,SID164378484,-0.18,61.3,inactive
NRDC,SID164378485,-0.135,76.2,inactive
NRDC,SID164378486,0.532,28.4,inactive
NRDC,SID164378488,-0.0698,80.3,inactive
IL1B,SID164371175,-0.406,76.1,inactive
IL1B,SID164371176,-0.186,92.2,inactive
IL1B,SID164371180,-0.389,103,inactive
IL1B,SID164371181,-0.464,110,inactive

8 successive entries already listed:
gene knocked down,PubChem SID,log2 vehicle/camptothecin viability,viability with camptothecin (% of control),call
OR3A3,SID164397329,0.303,32.2,inactive
OR3A3,SID164397330,-0.238,78.2,inactive
OR3A3,SID164397335,0.0891,86.6,inactive
GRB7,SID164367579,-0.606,104,inactive
GRB7,SID164367583,-0.415,52.4,inactive
GRB7,SID164367584,-0.253,84,inactive
TRMT9B,SID164495251,0.213,28.5,inactive
TRMT9B,SID164495252,-0.439,95.5,inactive

Next records follow.
gene knocked down,PubChem SID,log2 vehicle/camptothecin viability,viability with camptothecin (% of control),call
CSNK1A1L,SID164566393,-0.0371,52.1,inactive
CSNK1A1L,SID164566397,-0.195,60.7,inactive
CSNK1A1L,SID164566398,-0.183,73.8,inactive
CSNK1A1L,SID164566399,0.761,40.8,inactive
PLXNB2,SID164449370,-0.615,55.7,inactive
PLXNB2,SID164449373,0.0221,37.9,inactive
PLXNB2,SID164449375,-0.187,46.8,inactive
PLXNB2,SID164449376,-0.428,40.9,inactive
MLH1,SID164375644,-0.717,43.6,inactive
MLH1,SID164375646,-0.141,97.9,inactive
MLH1,SID164375647,-0.273,89,inactive
MLH1,SID164375650,-0.51,72.9,inactive
MDH1,SID164375140,0.0232,65.7,inactive
MDH1,SID164375141,-0.0959,105,inactive
MDH1,SID164375142,-0.473,60.9,inactive
FOXL2,SID164355550,0.736,35.6,inactive
FOXL2,SID164355551,-0.164,92.4,inactive
FOXL2,SID164355553,-0.499,61.2,inactive
FOXL2,SID164355554,-0.202,112,inactive
HMGB1,SID164369247,-0.533,73.6,inactive
HMGB1,SID164369248,-0.296,89,inactive
HMGB1,SID164369249,-0.347,114,inactive
HMGB1,SID164369250,-0.0511,108,inactive
